From patent publication US6617431
No constants are given. Whether binding was seen depends on the method and setting. Some results given as binding are weak or reduced against the parent protein; the word gives no strength.

Amino acid sequences for entries named in this document (tags omitted). A change or cut given only in a name is not applied to a line headed by its entry.
UniProt P02452: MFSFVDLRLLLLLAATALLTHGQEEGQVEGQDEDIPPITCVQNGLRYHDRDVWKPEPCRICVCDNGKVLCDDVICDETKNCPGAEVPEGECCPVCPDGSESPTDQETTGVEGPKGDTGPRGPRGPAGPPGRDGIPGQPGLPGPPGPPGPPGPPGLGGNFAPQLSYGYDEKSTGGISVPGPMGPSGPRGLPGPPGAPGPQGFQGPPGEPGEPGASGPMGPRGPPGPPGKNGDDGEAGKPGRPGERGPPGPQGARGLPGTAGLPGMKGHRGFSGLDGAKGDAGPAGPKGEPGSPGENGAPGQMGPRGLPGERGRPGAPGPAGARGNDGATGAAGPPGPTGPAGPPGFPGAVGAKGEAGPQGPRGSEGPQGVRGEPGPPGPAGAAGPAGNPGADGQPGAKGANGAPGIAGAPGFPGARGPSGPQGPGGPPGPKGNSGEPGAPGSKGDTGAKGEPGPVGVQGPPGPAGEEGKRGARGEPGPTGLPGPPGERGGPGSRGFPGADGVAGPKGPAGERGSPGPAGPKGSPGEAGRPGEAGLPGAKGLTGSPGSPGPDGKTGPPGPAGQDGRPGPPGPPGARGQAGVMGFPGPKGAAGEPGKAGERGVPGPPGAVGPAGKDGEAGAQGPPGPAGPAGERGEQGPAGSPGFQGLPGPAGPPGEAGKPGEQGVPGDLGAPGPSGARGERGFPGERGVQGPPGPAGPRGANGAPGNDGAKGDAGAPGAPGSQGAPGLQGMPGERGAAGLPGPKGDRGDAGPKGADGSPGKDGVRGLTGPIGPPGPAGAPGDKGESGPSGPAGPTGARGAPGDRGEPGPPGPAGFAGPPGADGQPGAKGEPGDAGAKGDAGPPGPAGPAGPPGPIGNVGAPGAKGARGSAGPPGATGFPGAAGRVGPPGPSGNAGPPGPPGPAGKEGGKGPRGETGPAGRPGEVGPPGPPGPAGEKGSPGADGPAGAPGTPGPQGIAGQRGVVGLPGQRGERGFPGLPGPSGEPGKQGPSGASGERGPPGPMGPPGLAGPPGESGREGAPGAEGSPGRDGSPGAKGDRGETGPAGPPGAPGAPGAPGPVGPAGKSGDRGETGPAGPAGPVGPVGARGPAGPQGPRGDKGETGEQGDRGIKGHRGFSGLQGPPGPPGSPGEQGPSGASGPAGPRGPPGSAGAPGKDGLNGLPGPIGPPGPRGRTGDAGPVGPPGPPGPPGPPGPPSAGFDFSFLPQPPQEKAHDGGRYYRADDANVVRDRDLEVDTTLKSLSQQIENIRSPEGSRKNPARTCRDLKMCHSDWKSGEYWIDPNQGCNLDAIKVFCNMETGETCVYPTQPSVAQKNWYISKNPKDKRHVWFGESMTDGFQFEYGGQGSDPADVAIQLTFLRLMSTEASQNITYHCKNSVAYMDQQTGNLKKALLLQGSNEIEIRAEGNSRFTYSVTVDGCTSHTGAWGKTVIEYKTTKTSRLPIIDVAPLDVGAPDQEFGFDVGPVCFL

Legend:
[1] = molecular target: recombinant human α1 (I) chain from tobacco plants transformed with construct pBIOC706 (fragment BDEFG), band migrating at the level of the control α1 (I) chain, C-propeptide cleaved (human) (UniProt P02452); experiment: chain-to-chain association (triple coil); trypsin digestion, 6% acrylamide gel
[2] = molecular target: recombinant human α1 (I) chain from tobacco plants transformed with construct pBIOC706 (fragment BDEFG), band migrating at the level of the control α1 (I) chain, C-propeptide cleaved (human) (UniProt P02452); experiment: chain-to-chain association (triple coil); resistance to trypsin at 25° C., gel electrophoresis
[3] = molecular target: recombinant human α1 (I) chain from tobacco plants transformed with construct pBIOC706 (fragment BDEFG), band migrating at the level of the control α1 (I) chain, C-propeptide cleaved (human) (UniProt P02452); experiment: chain-to-chain association (triple coil); electron microscopy after shade rotation
[4] = molecular target: recombinant human α1 (I) chain from tobacco plants transformed with construct pBIOC706 (fragment BDEFG), complete chain comprising the C-propeptide, band at approximately 140 KDa (human) (UniProt P02452); experiment: chain-to-chain association of the same chain; SDS-PAGE with or without DTT, immunotransfer
[5] = molecular target: recombinant human α1 (I) chain from tobacco plants transformed with construct pBIOC707 (fragment BCDEFG), band at approximately 140 KDa comprising the N-propeptide, C-propeptide cleaved (human) (UniProt P02452); experiment: chain-to-chain association (triple coil); resistance to trypsin at 25° C., gel electrophoresis
[6] = molecular target: recombinant human α1 (I) chain from tobacco plants transformed with construct pBIOC707 (fragment BCDEFG), complete chain comprising the N- and C-propeptides, band at approximately 160 KDa (human) (UniProt P02452); experiment: chain-to-chain association of the same chain; SDS-PAGE with or without DTT, immunotransfer

With “recombinant human α1 (I) chain from tobacco plants transformed with construct pBIOC706 (fragment BDEFG), band migrating at the level of the control α1 (I) chain, C-propeptide cleaved (from UniProt P02452 160-1192)” as the substance, how does the binding [1] read?
The binding was “binds”.

And the binding [2]?
The binding was “binds”.

And the binding [3]?
Its binding is “binds”.

With “recombinant human α1 (I) chain from tobacco plants transformed with construct pBIOC706 (fragment BDEFG), complete chain comprising the C-propeptide, band at approximately 140 KDa (from UniProt P02452 160-1464)” as the substance, how does the binding [4] read?
Its binding is “binds”.

With “recombinant human α1 (I) chain from tobacco plants transformed with construct pBIOC707 (fragment BCDEFG), band at approximately 140 KDa comprising the N-propeptide, C-propeptide cleaved (from UniProt P02452 27-1192)” as the substance, how does the binding [5] read?
The binding was “binds”.

With “recombinant human α1 (I) chain from tobacco plants transformed with construct pBIOC707 (fragment BCDEFG), complete chain comprising the N- and C-propeptides, band at approximately 160 KDa (from UniProt P02452 27-1464)” as the substance, how does the binding [6] read?
Its binding is “binds”.
